Earlier results, collected in patent US20100015141A1, “4-PHENOXY-6-ARYL-1H-PYRAZOLO[3,4-D]PYRIMIDINE AND N-ARYL-6-ARYL-1H-PYRAZOLO[3,4-D]PYRIMIDIN-4-AMINE COMPOUNDS, THEIR USE AS MTOR KINASE AND PI3 KINASE INHIBITORS, AND THEIR SYNTHESES” (Wyeth, priority 2008, published 2010).
At least one compound was matched to its structure with a doubt left.

System: prostrate, breast, ovarian, lung, multiple myeloma, and brain cancers
Conditions: cited from earlier work

In the case of `N=C(N)NCCC[C@H](NC(=O)CCC(=O)OC[N+]1(c2cc(=O)c3cccc(-c4ccccc4)c3o2)CCOCC1)C(=O)NCC(=O)N[C@@H](CC(=O)O)C(=O)N[C@@H](CO)C(=O)[O-]` [SF-1126], the “activity in preclinical mouse cancer models” value is listed as “active”.
